Measured values reported in article PMC12029333.

Molecular target: T1, GST-PrkC (Serine/threonine-protein kinase PrkC) (Bacillus subtilis str. 168) (UniProt O34507)
T1 sequence: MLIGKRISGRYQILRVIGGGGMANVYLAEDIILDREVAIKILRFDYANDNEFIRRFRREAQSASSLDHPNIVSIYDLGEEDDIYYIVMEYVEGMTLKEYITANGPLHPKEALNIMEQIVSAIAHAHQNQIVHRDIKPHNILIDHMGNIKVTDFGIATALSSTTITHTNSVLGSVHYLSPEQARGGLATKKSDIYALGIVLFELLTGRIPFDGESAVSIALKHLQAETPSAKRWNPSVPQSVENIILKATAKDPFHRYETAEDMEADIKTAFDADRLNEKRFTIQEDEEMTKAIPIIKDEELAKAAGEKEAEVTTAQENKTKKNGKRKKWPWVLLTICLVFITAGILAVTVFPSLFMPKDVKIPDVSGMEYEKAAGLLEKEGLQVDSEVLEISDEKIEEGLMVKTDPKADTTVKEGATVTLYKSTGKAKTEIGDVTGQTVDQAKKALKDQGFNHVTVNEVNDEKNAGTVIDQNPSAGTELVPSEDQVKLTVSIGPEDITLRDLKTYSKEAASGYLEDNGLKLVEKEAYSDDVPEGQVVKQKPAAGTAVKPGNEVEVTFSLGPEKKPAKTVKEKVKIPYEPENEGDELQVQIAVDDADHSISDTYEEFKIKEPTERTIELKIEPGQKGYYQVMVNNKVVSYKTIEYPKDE
Assay: affinity purification with mass spectrometry; GST-PrkC on glutathione resin incubated with B. subtilis spore lysate at 4 °C; resin washed; bound proteins eluted with 20 mM reduced glutathione; eluate digested with trypsin and analysed by LC-MS/MS; hits filtered at 1% FDR, >=2 unique peptides; only the target purified

B1: Uncharacterized protein YfjB (protein, UniProt O31557 1-407)
chain: MSGNIAVDPDKLEQLANDVVTELTDMENKYKDLHVELGQMILQCDPRYSSCFSGVGDAWSSGKALVTKLSDNEIFIRKTGDKFVEQDDILRKLYNAYDKYGTMTSLTALMLTQGKYYGLGLTKFVKQPSGLHTAQHSKLLLDISRAVDSSRYQKAARVLLNPKYLLKKTNRPFSDLVHKKFTKYFPQDTVDFSNSVRSYTKGFLNEAGVRSTLKDVGKTGLRFAKGNAITATLITGATETFGAGVKIAENYAKYQDKPEVLKRENAKAVGNAVNNTIFVAGGATAGAVIGGAIGSFAGPVGTVLLGAAGSYIGGVVGEQIAKYTAGFAEKAALKLKEPIHAVVDTAKKGLESAGKVVKSVNDGIDAANKSIHKGIDSAKKGMEKAKKTADSLIHGATHFLKGKFSFG
binding: binds

B2: Uncharacterized protein YlbO (protein, UniProt O34549 1-193)
chain: MTITRQDAWTQDEDLLLAEVVLRHIREGGTQLSAFEEVGRALTRTAAACGFRWNSYVRKQYQSGIELAKKQRKELRKQIGVHSVNMPNSMKQTASASSEGKRDLSIQDVIQFLEQFKETPSAQEFQLEREKLKEQIQSLQKELEDLRSENQTLRNQLEMTEEDYKALIDIMDRARKMVVSKEDGRMKKAAQET
binding: binds

B3: Group 2 truncated hemoglobin YjbI (protein, UniProt O31607 1-132)
chain: MGQSFNAPYEAIGEELLSQLVDTFYERVASHPLLKPIFPSDLTETARKQKQFLTQYLGGPPLYTEEHGHPMLRARHLPFPITNERADAWLSCMKDAMDHVGLEGEIREFLFGRLELTARHMVNQTEAEDRSS
binding: binds

B4: UPF0358 protein YlaN (protein, UniProt O07638 1-93)
chain: MASEMIVDHRQKAFELLKVDAEKILKLIRVQMDNLTMPQCPLYEEVLDTQMFGLSREIDFAVRLGLVDEKDGKDLLYTLERELSALHDAFTAK
binding: binds

B5: 3-dehydroquinate dehydratase (protein, UniProt P35146 1-255)
chain: MNVLTIKGVSIGEGMPKIIIPLMGKTEKQILNEAEAVKLLNPDIVEWRVDVFEKANDREAVTKLISKLRKSLEDKLFLFTFRTHKEGGSMEMDESSYLALLESAIQTKDIDLIDIELFSGDANVKALVSLAEENNVYVVMSNHDFEKTPVKDEIISRLRKMQDLGAHIPKMAVMPNDTGDLLTLLDATYTMKTIYADRPIITMSMAATGLISRLSGEVFGSACTFGAGEEASAPGQIPVSELRSVLDILHKNTRG
binding: binds

B6: Uncharacterized ABC transporter ATP-binding protein YdbJ (protein, UniProt P96605 1-308)
chain: MAEPILHIEGLDKKIGSKQILKQISMDVMEGEIIGLLGPNGSGKTTLIRIIVGLLKQNSGSVTISGFQHDTEFEKAMEAVGAIVENPEFYPYLTGWENLKHFANMHKKIADERLDEVVERVGLTSAIHDKVKTYSLGMRQRLGIAQAILHRPKLLILDEPTNGLDPAGMKDFRDHIKELAEMEGTAVLFATHLLREVEDLCDRVIIIQKGEIKAEVSLQGTDQTTEKAIIEVQPQEKALNWLTGNQYQAESQDGTIVVEVAKENIPELNRSLVGQDLNVFSITPYTQSLEDEFIKATTAHQEEGEELV
binding: binds

B7: Phage-like element PBSX protein XkdO (protein, UniProt P54334 1-1332)
chain: MAKLTARFDLEDKVSKKLKRIHKGFQEVEKKVKTINRQIKISIRAEDQAFYRLRKINDYIILKFAKSLEIKVVLDDQVTSKLDAIERKLKRLPKETKLTVSLVDRTAAAYKKIKKMLSNQKLSFLLIPDDKVTSTVKRIIGYIKKNLKNGYTVKLKVIDEITKTVNRLTALLRKFEKTYYVKVVVKTKISDKINKKESLINKETSKKESDKSSDKGSDKNSDQKPGWVGKIKGWLKDWWTKSAWPWIKDTLNEIGKAFLDRFKERLIEKLKNDVFDKIIDKILGPQKKDDSGENSDTDKKVLNRNTGGNCCCDCCEGGISPGTKNKKTYRKKKSPTKAPNRTLKVPGEVIRRRQSGTPAESAPRTSGSKLKNWLGGLKSLGKDSSKLGKAFRGMGKAVPYVGSALAVFDLAGINKDNAGEKVGSIGGRIAGAEAGATAGAEAGATIGSFVGPEGTAIGGAIGGIGGGLVGGIGGEEAGKNIGKMFDTSKLKESISNSLFNKEWWSGKWNSISDTANGAITWIEDTWSKVSTWFDQYVFTPIYNVAVPVINFIVGLFAYAWDGILAVWNIVYPWFKDNVWDPISGAVTNVATTIWTGLCNAWTVISGIWSTVSTWFMDNVWNPVSEAVTTAATWIWSKINDAWTIISNIWTGVSNWFYDNVWNPIVKKVEDIKTSIKEKFDDARKFFEDAWDGIETWFNEHVKDPLVKVSEKIAEKFQWLFDLKDSVGGFVAKVIHRGEEVTHLKKKPIKKDSKEKKTSSKPTTNNIFAQSPSNNNMTVFQQALDQNATGGYITKPTISWIGEAGKEFVIPVDNNRGRGKMLLSQAASKLGMQVVDDMGAASSSGGSPASVSGGAAVSPLSGTASPVMNTANLTGQASTLGQQFSEGFGKGISDQPVKMEDWKKKNINTPFTQMISASPNYGKQMVSGYAKGQSGTATGTDGFLQSKVKTPFQATVSKSSSWGTGTVKGFAQGQNSTQTGTAQYVSTHVDKPFLRSKDTSNSWGSGLIGNFVTGMNSKSSEVKQAAKDMAKRVEQAFREELDIHSPSRVMMSLGRFASVGVVKGLDSVDVKKYAEKQAGSLAAAYSGMGAVGGNVKQWLMAAIMATKTPLSWLSGLMTIAQYESGGNPNSINLWDSNAKAGNPSQGLMQTVPTTFNAHKAPGMGNIRNPIHNAAAAIGYIKSRYGSIDNVPGIKSLKRGGPYVGYANGGLITKEQIARVGEGNKREWIIPEERGIRGRYLLQRAAQALGMEVTDPSQSQQSELSSGQVSAVTSASRPTAAVSGSKEIYIQFNGDQHFHNGQDAESLAAKIKQALIDELQKDINIGTKGVVAFD
binding: binds

B8: Putative ABC transporter substrate-binding lipoprotein YhfQ (protein, UniProt C0SP94 20-323)
chain: CSSSSGNQNSKEHKVAVTHDLGKTNVPEHPKRVVVLELGFIDTLLDLGITPVGVADDNKAKQLINKDVLKKIDGYTSVGTRSQPSMEKIASLKPDLIIADTTRHKKVYDQLKKIAPTIALNNLNADYQDTIDASLTIAKAVGKEKEMEKKLTAHEEKLSETKQKISANSQSVLLIGNTNDTIMARDENFFTSRLLTQVGYRYAISTSGNSDSSNGGDSVNMKMTLEQLLKTDPDVIILMTGKTDDLDADGKRPIEKNVLWKKLKAVKNGHVYHVDRAVWSLRRSVDGANAILDELQKEMPAAKK
binding: binds

B9: Uncharacterized protein YcdC (protein, UniProt O34772 1-453)
chain: MVNKQLKKKAQEIGNVPTHYELEIEDYDQKQKKYGQAYFIWKDPKDPEKHITVELRNDGALLTFSTTVHSETDKKLPDAELKLTALQFAAANHPGTFMNFHFQGKEERGQHIRFVYTKMELGLPIPNSGFLIDMTRSGQIVHFLYYGEGHKAEVPTEFVAKEKVVSHYLNTMSFELMYDVIDGEQEPRLVYEPILPGYSYPADVDEIVPDQHIADERIENTAPLPPLQNKEEVDIFALLGFTSDMQKVSERDFGEQIGSTWRRGAAPERKDLSIGSYFETRNKNTIKMKTDKRTGKLKAALSFMDWRNNLQCSTEECQEIALQFLYALYPRAAEFFRVNPVRIDERGRVRNHFSVWYKGVPLRFGAARIIVNPETGLIDAFMAPDIEPEQLEAINHRPDVSAEEAKEAFLAAFDVKLEWQPDFTAGSDQHCKLVYKPVYPSYIDAHIRKKKRL
binding: binds

B10: Uncharacterized protein YjdH (protein, UniProt O31649 1-131)
chain: MYHYFYGPALIPYFSHTHNPQRSPDFSERQRRREITLTVDGFVPPSSTEDLGDGFYSYAWTNQQVINPGEYLVCHLEGRDINVINGGFTPRDTAPLYAVASFPRRRNQWVIIIHNPVQTQRAISLYLIAKR
binding: binds

B11: Spore coat protein F-like protein YhcQ (protein, UniProt P54601 1-217)
chain: MDQFNQQQQSQMNKGIPGKPHKNHGGHEMFDMHEVLSGTLTVLDQFMMLRQFCKDQELLNILDRQHQFITSQYNITAECFKTGSEPSQKTATYMMKEDNQTVYGMQPSQPKKPVQSMNDIDDSIISRQMLCAIKAQASMLTMASLEMTNPAVRRVLSAQIQEYVEMAFEIFLYQNKHGYYQVPQLDAQDMEQLRNSFAPAQGQMPPTQGGMGQQGLH
binding: binds

B12: RQC P-site tRNA stabilizing factor (protein, UniProt P37557 1-86)
chain: MRLDKFLKVSRLIKRRTLAKEVADQGRISINGNQAKASSDVKPGDELTVRFGQKLVTVQVNELKDTTKKEEAANMYTILKEEKLGE
binding: binds

Results are given in words; binding and its absence hold for the method and conditions named. Binding seen in cells or lysates may run through a third protein. These calls come from enrichment with a bait or labelling near it, and not all partners need be listed. Sequences can lack the tags named with a protein.
